Results deposited as PubChem BioAssay AID1259299 (Sanger Institute, 2017).
Shown is a random part of 794 deposited reagents. 9 of all reagents (1.1%) count as active. 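Calls rest on knock-down alone; synergy scores play no part in calls, and no gene passed the synergy cut.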 Viability is capped at 1. Not all columns of the deposit are shown. The record does not give: the amount of reagent, the time to read-out.

- Purpose: 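Essential genes and drug-synergistic partners among kinases and colorectal mutation genes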 (primary screen)
- Cells: human CAR1 colorectal cancer cells
- Reagent: siRNA pool against human genes
- Conditions: anchor drug BYL719 1 µM, cetuximab 5 µg/ml or trametinib 10 nM, or DMSO vehicle alone; exposure length not given
- Measured: 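Cell viability as fraction of non-targeting siRNA wells, mean of replicates, with robust z-score and a synergy score for each of three drugs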
- Scale: viability robust z-score, knock-down alone and viability, knock-down alone (DMSO): higher = more viable cells
- Rule for the call: 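Essential when viability robust z-score with knock-down alone (DMSO) is below -3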
- Calls: active = essential (knock-down alone); inactive = no change

What is on record for DNMT3A?
viability robust z-score, knock-down alone: -2.09; viability, knock-down alone (DMSO) (fraction of control): 0.734; call: inactive

With IDH2, what was measured?
viability robust z-score, knock-down alone: 0.789; viability, knock-down alone (DMSO) (fraction of control): 1; call: inactive

How did the screen score TCF12?
viability robust z-score, knock-down alone: 0.6; viability, knock-down alone (DMSO) (fraction of control): 0.983; call: inactive

For HASPIN, what does the deposit list?
viability robust z-score, knock-down alone: 0.789; viability, knock-down alone (DMSO) (fraction of control): 1; call: inactive

How did the screen score RPS6KA3?
viability robust z-score, knock-down alone: 0.789; viability, knock-down alone (DMSO) (fraction of control): 1; call: inactive

What is on record for STK17A?
viability robust z-score, knock-down alone: -0.19; viability, knock-down alone (DMSO) (fraction of control): 0.91; call: inactive

With ACVR2B, how do the results read?
viability robust z-score, knock-down alone: -0.273; viability, knock-down alone (DMSO) (fraction of control): 0.902; call: inactive

What did the screen give for PDK1?
viability robust z-score, knock-down alone: 0.789; viability, knock-down alone (DMSO) (fraction of control): 1; call: inactive

For PFKM, what was measured?
viability robust z-score, knock-down alone: 0.452; viability, knock-down alone (DMSO) (fraction of control): 0.969; call: inactive

What did the screen give for TP53BP1?
viability robust z-score, knock-down alone: 0.112; viability, knock-down alone (DMSO) (fraction of control): 0.937; call: inactive

For GK2, what does the deposit list?
viability robust z-score, knock-down alone: 0.789; viability, knock-down alone (DMSO) (fraction of control): 1; call: inactive

With CDK2, what was measured?
viability robust z-score, knock-down alone: 0.534; viability, knock-down alone (DMSO) (fraction of control): 0.976; call: inactive

With PIP4K2C, how do the results read?
viability robust z-score, knock-down alone: 0.789; viability, knock-down alone (DMSO) (fraction of control): 1; call: inactive

With PRKAG2, what does the deposit list?
viability robust z-score, knock-down alone: 0.495; viability, knock-down alone (DMSO) (fraction of control): 0.973; call: inactive

What did the screen give for DSTYK?
viability robust z-score, knock-down alone: 0.789; viability, knock-down alone (DMSO) (fraction of control): 1; call: inactive

With TTBK2, what was measured?
viability robust z-score, knock-down alone: 0.756; viability, knock-down alone (DMSO) (fraction of control): 0.997; call: inactive

With CUL1, what does the deposit list?
viability robust z-score, knock-down alone: 0.582; viability, knock-down alone (DMSO) (fraction of control): 0.981; call: inactive

What did the screen give for MAST1?
viability robust z-score, knock-down alone: 0.789; viability, knock-down alone (DMSO) (fraction of control): 1; call: inactive

Which result is listed for STK10?
viability robust z-score, knock-down alone: 0.789; viability, knock-down alone (DMSO) (fraction of control): 1; call: inactive

How did the screen score PLK2?
viability robust z-score, knock-down alone: 0.789; viability, knock-down alone (DMSO) (fraction of control): 1; call: inactive

With TRIB3, what does the deposit list?
viability robust z-score, knock-down alone: 0.459; viability, knock-down alone (DMSO) (fraction of control): 0.97; call: inactive

With CDK17, how do the results read?
viability robust z-score, knock-down alone: 0.789; viability, knock-down alone (DMSO) (fraction of control): 1; call: inactive

With NTRK3, what does the deposit list?
viability robust z-score, knock-down alone: 0.789; viability, knock-down alone (DMSO) (fraction of control): 1; call: inactive

For MERTK, what was measured?
viability robust z-score, knock-down alone: -0.674; viability, knock-down alone (DMSO) (fraction of control): 0.865; call: inactive

How did the screen score FGFR4?
viability robust z-score, knock-down alone: 0.789; viability, knock-down alone (DMSO) (fraction of control): 1; call: inactive

For ADK, how do the results read?
viability robust z-score, knock-down alone: -0.592; viability, knock-down alone (DMSO) (fraction of control): 0.872; call: inactive

For CKM, what does the deposit list?
viability robust z-score, knock-down alone: 0.575; viability, knock-down alone (DMSO) (fraction of control): 0.98; call: inactive

What did the screen give for FYN?
viability robust z-score, knock-down alone: -0.208; viability, knock-down alone (DMSO) (fraction of control): 0.908; call: inactive

Already shown: an excerpt of the list.
STK10 | viability robust z-score, knock-down alone = 0.789; viability, knock-down alone (DMSO) (fraction of control) = 1; call = inactive
PLK2 | viability robust z-score, knock-down alone = 0.789; viability, knock-down alone (DMSO) (fraction of control) = 1; call = inactive
